In the test the target is FMNL1NCC (FMNL1 1–458, GBD-FH3-CC) (human) (UniProt O95466). The experiment in a line: SEC; analytical gel filtration, Superdex S200 (10/300 GL), typically 100 μg of each protein, 20 mM Tris/HCl pH 8.0, 150 mM NaCl, 1 mM DTE (2.5 mM MgCl2 with Rho GTPases), 0.5 ml/min, 293 K; both purified. (In gel filtration, larger molecules generally elute earlier.)

By UniProt entry, the sequences of proteins in these tests, tags left out. Where a name states a change or a piece, a line headed by the entry shows the natural chain unless it says otherwise. Residues count along the entry.
UniProt O95466: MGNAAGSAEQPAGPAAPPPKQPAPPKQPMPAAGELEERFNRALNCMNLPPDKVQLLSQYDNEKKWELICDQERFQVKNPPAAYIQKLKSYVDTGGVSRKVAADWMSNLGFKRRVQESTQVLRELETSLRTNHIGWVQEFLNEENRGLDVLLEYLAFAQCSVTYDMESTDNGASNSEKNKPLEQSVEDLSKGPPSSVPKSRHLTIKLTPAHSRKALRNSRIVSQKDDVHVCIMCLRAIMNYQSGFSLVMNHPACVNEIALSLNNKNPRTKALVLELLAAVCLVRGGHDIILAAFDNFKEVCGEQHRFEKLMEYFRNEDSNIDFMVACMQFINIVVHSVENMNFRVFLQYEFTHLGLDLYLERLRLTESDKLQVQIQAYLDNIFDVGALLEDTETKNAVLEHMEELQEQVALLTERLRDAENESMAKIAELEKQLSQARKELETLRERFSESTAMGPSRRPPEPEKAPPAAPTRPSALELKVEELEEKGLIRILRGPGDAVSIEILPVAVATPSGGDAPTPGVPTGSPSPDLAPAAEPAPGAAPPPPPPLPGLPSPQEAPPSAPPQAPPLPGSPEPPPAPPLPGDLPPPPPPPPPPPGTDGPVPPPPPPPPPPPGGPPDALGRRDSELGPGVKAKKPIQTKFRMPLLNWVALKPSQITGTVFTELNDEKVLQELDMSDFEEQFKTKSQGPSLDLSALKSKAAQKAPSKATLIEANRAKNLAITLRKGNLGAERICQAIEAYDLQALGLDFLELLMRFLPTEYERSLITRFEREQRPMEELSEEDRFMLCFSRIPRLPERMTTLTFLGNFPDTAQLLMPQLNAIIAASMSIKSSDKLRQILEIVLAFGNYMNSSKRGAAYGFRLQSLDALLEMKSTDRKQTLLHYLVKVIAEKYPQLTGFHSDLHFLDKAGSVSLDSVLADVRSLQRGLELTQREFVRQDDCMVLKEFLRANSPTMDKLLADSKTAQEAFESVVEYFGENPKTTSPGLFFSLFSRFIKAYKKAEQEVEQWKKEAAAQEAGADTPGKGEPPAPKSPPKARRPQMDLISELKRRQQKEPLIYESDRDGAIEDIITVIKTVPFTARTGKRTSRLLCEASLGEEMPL
UniProt P60953, residues 1-179: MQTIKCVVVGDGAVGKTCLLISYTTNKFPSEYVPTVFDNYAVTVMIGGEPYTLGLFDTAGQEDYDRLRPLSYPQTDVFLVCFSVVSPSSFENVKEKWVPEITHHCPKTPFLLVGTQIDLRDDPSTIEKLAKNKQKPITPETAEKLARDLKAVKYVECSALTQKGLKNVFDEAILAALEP

These are yes or no findings as the source states them, for the method shown. Binding can be weak; no strength is given.

In the case of “Cdc42 (1–179) (from UniProt P60953 1-179) (domain or fragment)”, the binding entry is “binds”.

The values are drawn from article PMC4432619.
